# Source: PubChem BioAssay AID1053208 (Peter MacCallum Cancer Centre, 2014)
# Purpose: 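Synthetic lethal interactions between gene loss and doxorubicin in osteosarcoma cells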 (primary screen)
# Cell system: mouse osteosarcoma cells, early-passage culture from an engineered mouse model of fibroblastic bone tumour
# Knock-down reagent: siRNA pool against mouse genes, 40 nM
# Time to read-out: about 120 h (48 h before drug, then 72 h with drug)
# Conditions: doxorubicin 100 nM for 72 h, roughly 30-40% inhibitory dose
# Measured: 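Viability read as ATP luminescence after 72 h of 100 nM doxorubicin or none, duplicate wells averaged, scaled to non-targeting siRNA, then expressed as robust z-scores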
# Scale: viability z-score with doxorubicin and doxorubicin viability vs non-targeting: higher = more viable cells under doxorubicin; viability z-score without drug: higher = more viable cells with knock-down alone; z-score of drug to no-drug ratio: higher = less drug sensitisation by knock-down
# Active means: 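a pool counts as active when its viability z-score with doxorubicin is -2 or below and its z-score without drug lies between -2 and 2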
# Shown is an unselected part of about 17,000 reagents tested. 788 of all reagents (4.7%) were called active. 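Calls rest on z-score classes alone; an extra cut-off of viability at most 70% of control was not applied to them.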 A number with no mark means an inactive call.
gene,combined z-score class,viability z-score with doxorubicin,viability z-score without drug,z-score of drug to no-drug ratio,doxorubicin viability vs non-targeting
Mfsd6 (major facilitator superfamily domain containing 6),no change with or without drug,0.11,-0.84,0.9,0.95
Pacsin2 (protein kinase C and casein kinase substrate in neurons 2),no change with or without drug,-1.8,-0.84,-1.24,0.78
P3h3 (prolyl 3-hydroxylase 3),no change with or without drug,0,1.18,-0.67,0.94
"Tas2r129 (taste receptor, type 2, member 129)",no change with or without drug,0.67,-0.67,1.35,1
"Tpm2 (tropomyosin 2, beta)",no change with or without drug,0,-0.17,0.22,0.94
"Cyp2c37 (cytochrome P450, family 2. subfamily c, polypeptide 37)",no change with or without drug,1.01,0.17,1.01,1.03
Cbx1 (chromobox 1),no change with or without drug,-0.22,-0.51,0.22,0.92
Sap18 (Sin3A-associated polypeptide 18),no change with or without drug,0.22,0.17,0.22,0.96
Eps8l3 (EPS8-like 3),no change with or without drug,-1.8,-0.17,-1.69,0.78
Or2l5 (olfactory receptor family 2 subfamily L member 5),no change with or without drug,-1.57,-1.18,-0.79,0.8
Or2t47 (olfactory receptor family 2 subfamily T member 47),no change with or without drug,-1.24,-1.52,-0.11,0.83
Oxr1 (oxidation resistance 1),low cell count with doxorubicin only (active),-2.47,-0.84,-2.02,0.72
"Atp6v1g3 (ATPase, H+ transporting, lysosomal V1 subunit G3)",no change with or without drug,1.12,1.85,0,1.04
Rdm1 (RAD52 motif 1),no change with or without drug,-1.12,0.17,-1.12,0.84
Zbtb39 (zinc finger and BTB domain containing 39),no change with or without drug,-0.11,1.18,-0.79,0.93
Plcxd1,no change with or without drug,-0.67,-0.67,-0.11,0.88
Dnajc5g (DnaJ heat shock protein family (Hsp40) member C5 gamma),low cell count with doxorubicin only (active),-2.7,0.51,-3.04,0.7
Myt1l (myelin transcription factor 1-like),no change with or without drug,1.69,0.67,1.35,1.09
Grk6 (G protein-coupled receptor kinase 6),no change with or without drug,1.57,1.18,0.9,1.08
Adamts4 (ADAM metallopeptidase with thrombospondin type 1 motif 4),no change with or without drug,-1.69,-0.67,-1.24,0.79
Rnf135 (ring finger protein 135),high cell count with doxorubicin only,2.14,1.85,1.01,1.13

4 entries from above, ordered by “doxorubicin viability vs non-targeting”, descending:
gene,combined z-score class,viability z-score with doxorubicin,viability z-score without drug,z-score of drug to no-drug ratio,doxorubicin viability vs non-targeting
Sap18 (Sin3A-associated polypeptide 18),no change with or without drug,0.22,0.17,0.22,0.96
Or2t47 (olfactory receptor family 2 subfamily T member 47),no change with or without drug,-1.24,-1.52,-0.11,0.83
Or2l5 (olfactory receptor family 2 subfamily L member 5),no change with or without drug,-1.57,-1.18,-0.79,0.8
Eps8l3 (EPS8-like 3),no change with or without drug,-1.8,-0.17,-1.69,0.78

More results follow.
gene,combined z-score class,viability z-score with doxorubicin,viability z-score without drug,z-score of drug to no-drug ratio,doxorubicin viability vs non-targeting
"Cdon (cell adhesion associated, oncogene regulated)",no change with or without drug,-0.11,0.34,-0.22,0.93
"Cd248 (CD248 antigen, endosialin)",no change with or without drug,-0.9,-0.17,-0.79,0.86
Or8c20 (olfactory receptor family 8 subfamily C member 20),no change with or without drug,-0.45,1.18,-1.12,0.9
"Il1r2 (interleukin 1 receptor, type II)",no change with or without drug,-1.12,-1.18,-0.34,0.84
Zfp764l1 (zinc finger protein 764 like 1),no change with or without drug,0.22,1.52,-0.67,0.96
Tsks (testis-specific serine kinase substrate),no change with or without drug,0.9,-1.85,2.59,1.02
Ostc (oligosaccharyltransferase complex subunit (non-catalytic)),no change with or without drug,-0.67,0.51,-0.9,0.88
"Col10a1 (collagen, type X, alpha 1)",no change with or without drug,0.45,-0.17,0.67,0.98
"Sult1c2 (sulfotransferase family, cytosolic, 1C, member 2)",no change with or without drug,0.67,0.17,0.67,1
"Ppp1r15b (protein phosphatase 1, regulatory subunit 15B)",no change with or without drug,0.9,-0.17,1.24,1.02
Slc17a8,no change with or without drug,-0.56,-0.51,-0.11,0.89
S100a7a (S100 calcium binding protein A7A),no change with or without drug,-0.45,0.17,-0.45,0.9
Cnpy4 (canopy FGF signaling regulator 4),no change with or without drug,-0.11,0.17,-0.11,0.93
Tmem86a (transmembrane protein 86A),no change with or without drug,-0.22,0.67,-0.56,0.92
Ca5a (carbonic anhydrase 5A),no change with or without drug,-1.12,-0.17,-1.01,0.84
Jdp2 (Jun dimerization protein 2),no change with or without drug,-1.24,0.51,-1.46,0.83
Misp (mitotic spindle positioning),no change with or without drug,0.9,1.35,0.11,1.02
Clta (clathrin light chain A),no change with or without drug,-1.01,-0.67,-0.56,0.85
Rpl22 (ribosomal protein L22),no change with or without drug,0,0.17,0,0.94
Abtb2 (ankyrin repeat and BTB domain containing 2),no change with or without drug,1.35,0.84,0.9,1.06
Or8d1 (olfactory receptor family 8 subfamily D member 1),no change with or without drug,0.9,0.84,0.45,1.02
Stx19 (syntaxin 19),no change with or without drug,0.9,0.17,0.9,1.02
Klf15 (Kruppel-like transcription factor 15),no change with or without drug,0.34,0.67,0,0.97
Cfap69 (cilia and flagella associated protein 69),no change with or without drug,-1.12,-0.34,-0.9,0.84
Rdh16f2 (RDH16 family member 2),no change with or without drug,0.22,1.18,-0.45,0.96
Fnbp1 (formin binding protein 1),no change with or without drug,-0.45,-0.34,-0.11,0.9
Foxn4 (forkhead box N4),no change with or without drug,-0.67,-0.67,-0.11,0.88
Aqp3 (aquaporin 3),low cell count with doxorubicin only (active),-2.92,-1.18,-2.36,0.68
Snd1 (staphylococcal nuclease and tudor domain containing 1),no change with or without drug,0.22,-0.84,1.01,0.96
